Results are given in words; binding and its absence hold for the method and conditions named. In cells and extracts the contact can be indirect. Binding calls can cover weak binding; strength is not graded here.
Molecular target: myc-tagged Entamoeba replacement Arp2 (Entamoeba histolytica)
Assay: co-IP; cleared cell lysates (50 mM Tris pH 8.0, 100 mM NaCl, 1 mM EDTA, 1% Triton X-100, protease inhibitors) incubated with mAb 9E10 anti-myc bound to protein G-sepharose, 1 hr at 4°C, 4 washes; blots probed with antibodies to Dictyostelium Arp2, Arp3 and p21-arc

B1: Dictyostelium p21-arc subunit of the Arp2/3 complex (protein, UniProt O96624 1-174)
chain: MVYHSQFNDESAGFRLVGNVPILPLKTTHKGPAPKGDANSVDIIDEALDLFKANILFRNFEVQGNGDRVLIYLTLYITKCLLKIAPMNKADAEKALFLIAQEQFSIPGESAFPLGGLVTVPNTRDAADTLRQYFTQLRLELGVRLCQRVYAVDPSKANKWWICFSKRKFLNKAL
binding: binds
